{"source": "patent US5250426A", "about": "“Molecules with antibody combining sites that induce asymmetry” (The Scripps Research Institute, priority 1991, dated 1993)", "test": "Racemization of Compound 2 S-enantiomer on standing", "assay_type": "physicochemical", "settings": "S-enantiomer allowed to stand overnight", "note": "At least one structure is not confirmed: it was looked up by name or label, or the drawing left a doubt."}
{"smiles": "C[C@@H]1CCCCC1=O", "note": "[Compound 2, (2R)-methylcyclohexanone]", "values": [{"measurement": "racemization of Compound 2", "value": "No racemization"}]}
